Record: PubChem BioAssay AID720505 (Drosophila RNAi Screening Center, 2013)
The screen tested about 20,000 reagents; shown is a random part of those with a known target gene and a result. In the full data, about 2,100 (10%) were called active. 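Raw plate signals without normalisation; calls rest on control-based scores that were not deposited; replicate 2 separates called from uncalled poorly.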 A number with no mark means an inactive call. A plus sign joins genes that one reagent is predicted to hit. Not stated in the record: the amount of reagent, the time to read-out.

- Screen: 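Fly regulators or components of the CRAC channel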 (primary screen)
- Cell system: Drosophila S2R+ cells
- Reagents: long dsRNA against Drosophila genes
- Challenge: thapsigargin (2 µM) in calcium-free buffer to empty internal stores, then 2 mM calcium added back
- Measured: 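Fluo-4 signal in 384-well plates read on a FLIPR after thapsigargin (2 µM, calcium-free) store depletion and 2 mM calcium add-back; unnormalised mean endpoint per well; screen run twice, selected wells retested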
- Direction: calcium signal and retest calcium signal: higher = more calcium entry after store depletion
- Hit rule: 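Knock-downs counted as hits when calcium entry dropped relative to STIM1 positive and Rho1 negative controls present on each plate; roughly 1500 genes called, with reductions of differing size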
- Meaning of the calls: active = called as lowering calcium entry; inactive = not called

gene knocked down	amplicon	calcium signal, replicate 1	calcium signal, replicate 2	retest calcium signal, replicate 1	retest calcium signal, replicate 2
Diedel3 (GeneID 50358)	DRSC19544	110	90.4		
fry (GeneID 39122)	DRSC10172	94.5	117		
fry (GeneID 39122)	DRSC10709	81.3	107		
fry (GeneID 39122)	DRSC10712	108	94.7		
Men-b (GeneID 43936)	DRSC16736	169	145		
AIMP2 (GeneID 39690)	DRSC09877	138	87.8		
Lcp3 (GeneID 35819)	DRSC07457	130	106		
CG2147 (GeneID 31759)	DRSC18211	161	94.8		
Ipp (GeneID 41701)	DRSC16718	94.7	139		
NANS (GeneID 41528)	DRSC15743	140	112		
CG14100 (GeneID 40132)	DRSC10101	117	119		
CG13699 (GeneID 40008)	DRSC10048	122	205		
Srp54k (GeneID 38593)	DRSC11289	66.7	92.4		
vri (GeneID 33759)	DRSC03633	210	76.3		
vri (GeneID 33759)	DRSC23174	90.9	117		
CG11560 (GeneID 39376)	DRSC09843	91.1	74.5		
CG15042 (GeneID 32844)	DRSC19618	98.4	120		
ATPsynG (GeneID 46069)	DRSC02928	119	147	68.2	81.3
Hmx (GeneID 42110)	DRSC15307	113	139		
Hmx (GeneID 42110)	DRSC15884	130 (active)	107		
Hmx (GeneID 42110)	DRSC16706	52.3	164		
Hmx (GeneID 42110)	DRSC22799	80.1	95.7		
grh (GeneID 37038)	DRSC05680	90.9	101		
grh (GeneID 37038)	DRSC05683	136	112		
grh (GeneID 37038)	DRSC07624	169	106		
grh (GeneID 37038)	DRSC07625	122	129		
CG6614 (GeneID 34583)	DRSC02974	99.7	123		
Or22a (GeneID 33335)	DRSC00764	168	173		
CG12069 (GeneID 43643)	DRSC14470	212	171		
PolD2 (GeneID 38228)	DRSC08147	160	97.7		
CG3494 (GeneID 37903)	DRSC04375	159	247		
Spase25 (GeneID 32095)	DRSC19776	141	81.6		
Gr28a (GeneID 117348)	DRSC02290	203	74.9		
CG7408 (GeneID 39991)	DRSC10841	128	218		
CG14234 (GeneID 32988)	DRSC19317	123	141		
CG14234 (GeneID 32988)	DRSC19589	52.5 (active)	101		
GluRIB (GeneID 44484)	DRSC10258	56.8	107		
GluRIB (GeneID 44484)	DRSC11177	91.5	108		
Cyp4ac2 (GeneID 33755)	DRSC03303	194	79.3		
CG31998 (GeneID 43774)	DRSC17137	123	155		
CG31998 (GeneID 43774)	DRSC17138	112	204		
CG5065 (GeneID 36860)	DRSC06912	133	122		
Ca-alpha1D (GeneID 34950)	DRSC03284	118	88		
dally (GeneID 39013)	DRSC11338	90.2	145		
St4 (GeneID 36548)	DRSC07008	105	162		
CG2961 (GeneID 31954)	DRSC18246	67.7 (active)	134		
CG6171 (GeneID 41872)	DRSC15982	114	145		
Poxm (GeneID 40990)	DRSC16793	143	115	6482	127
Poxm (GeneID 40990)	DRSC22839	110	107		
Hydr2 (GeneID 33532)	DRSC00607	153	226		
Vps25 (GeneID 35847)	DRSC06486	109	120		
CG8910 (GeneID 36896)	DRSC07414	208	144		
CG40005 (retired record) + cta	DRSC03763	72.2	9198		
CG10959 (GeneID 31743)	DRSC17769	106	99		
CG6569 (GeneID 42573)	DRSC16067	167	180		
His2Av (GeneID 43229)	DRSC16702	165	192		
magu (GeneID 36048)	DRSC06832	190	168		
Spf45 (GeneID 3355114)	DRSC03826	203	86.8		
CG7518 (GeneID 41599)	DRSC16253	83.8	131		
Dpp10 (GeneID 33923)	DRSC00942	86.2	164		
Dpp10 (GeneID 33923)	DRSC02139	137	110		
Taf9 (GeneID 32762)	DRSC20326	195	185		
Cp7Fc (GeneID 31786)	DRSC18035	238	95.3		
Naa30B (GeneID 317976)	DRSC08245	109	96.1		
CG32437 (GeneID 40366)	DRSC11760	67.9 (active)	137		
CG32437 (GeneID 40366)	DRSC22020	78.5	149		
Tmhs (GeneID 38251)	DRSC08231	154	141		
CG16723 (GeneID 42781)	DRSC15138	141	99.4		
CG15084 (GeneID 37178)	DRSC06515	111	136	102	162
CG15084 (GeneID 37178)	DRSC21403	155	115		
CG15646 (GeneID 32501)	DRSC19682	109	165		
Mapmodulin (GeneID 37043)	DRSC06956	165	160		
DIP-epsilon (GeneID 7354433)	DRSC00932	113	178	117	70.4
DIP-epsilon (GeneID 7354433)	DRSC02313	72.8 (active)	198		
Vps13B (GeneID 43550)	DRSC15060	127	133		
CG6937 + btn	DRSC16917	141	95.5		
Ald2 (GeneID 43189)	DRSC14730	269	139		
Ald2 (GeneID 43189)	DRSC15799	293	145		
mmd (GeneID 32561)	DRSC19672	78.1	187		
mmd (GeneID 32561)	DRSC19673	98.7	144		
mmd (GeneID 32561)	DRSC20161	90.6	156		
mmd (GeneID 32561)	DRSC23042	102	161		
Ms (GeneID 44324)	DRSC16041	279	241		

Reagents listed so far marked active, once more:
gene knocked down	amplicon	calcium signal, replicate 1	calcium signal, replicate 2	retest calcium signal, replicate 1	retest calcium signal, replicate 2
Hmx (GeneID 42110)	DRSC15884	130 (active)	107		
CG14234 (GeneID 32988)	DRSC19589	52.5 (active)	101		
CG2961 (GeneID 31954)	DRSC18246	67.7 (active)	134		
CG32437 (GeneID 40366)	DRSC11760	67.9 (active)	137		
DIP-epsilon (GeneID 7354433)	DRSC02313	72.8 (active)	198		
